Reference: US20200397808A1, “TREATMENT OF STEROID-RESISTANT DISEASE USING AN ANTHOCYANIN AND A CORTICOSTEROID” (THE CLEVELAND CLINIC FOUNDATION, priority 2017, published 2020)
For at least one compound, name, drawing or mass did not settle the structure.

Tests used:
[1] = test system: HDM-induced neutrophilic airway inflammation; assay: HDM/CFA-induced acute neutrophilic steroid-resistant severe asthma model; type: in vivo, C57BL/6 mice; conditions: alone
Description: FIGS. 1A and 1B provide graphs showing C3G attenuates neutrophilic airway inflammation in a HDM-induced acute asthma model. A. HDM/CFA-induced neutrophilic asthma in 8-week female C57BL/6 mice (n=8 per group). B. Shown are total and differential cell counts in BAL cell count. HDM, house dust mite. […] DEX and C3G were delivered to mice 24 h before HDM sensitization and 1 h before HDM challenge. Mice were sacrificed after HDM challenge. i.p., intraperitoneally; i.n. intranasally.
FIGS. 2A and 2B provide graphs showing Oral C3G attenuates neutrophilic airway inflammation in a HDM-induced acute asthma model. A. HDM/CFA-induced neutrophilic asthma in 8-week female C57BL/6 mice (n=5 per group). B. Shown are total and differential cell counts in BAL cell count. HDM, house dust mite. Treatment groups: Control (DMSO); Low DEX (0.3 mg/kg BW, i.p.); Low DEX+10 mg C3G (per mouse); Low DEX+20 mg C3G (per mouse); DEX and C3G were delivered to mice 24 h before HDM sensitization and 1 h before HDM challenge. Mice were sacrificed after HDM challenge.
C3G attenuates neutrophilic airway inflammation in a HDM-induced acute asthma model. […] The ability of C3G in combination with low-dose DEX (low DEX) was evaluated in alleviating neutrophilic airway inflammation in a HDM-induced steroid-resistant severe asthma model. […]

[2] = test system: Th17-induced neutrophilic airway inflammation; assay: Th17 cell-mediated neutrophilic asthma model; type: in vivo, C57BL/6 mice; conditions: low DEX 0.3 mg/kg BW i.p., alone
Description: FIGS. 3A and 3B provide graphs showing C3G attenuates neutrophilic airway inflammation in a Th17-induced asthma model. A. HDM/CFA-induced neutrophilic asthma in 8-week female C57BL/6 mice (n=5 per group). B. Shown are total and differential cell counts in BAL cell count. HDM, house dust mite. Treatment groups: Control (DMSO); Low DEX (0.3 mg/kg BW, i.p.); C3G (200 μg i.p./100 μg i.n per mouse); Low DEX/C3G. DEX and C3G were delivered to mice 1 h before HDM challenges. Mice were sacrificed after the last HDM challenge.
C3G attenuates neutrophilic airway inflammation in a Th17-induced asthma model. To further confirm the synergistic effect of DEX/C3G in IL-17A-driven asthma, the efficacy of C3G was tested in a TH17 cell-mediated neutrophilic asthma model (FIG. 3).

## C[C@@H]1C[C@H]2[C@@H]3CCC4=CC(=O)C=C[C@]4(C)[C@@]3(F)[C@@H](O)C[C@]2(C)[C@@]1(O)C(=O)CO [DEX, dexamethasone, reference compound]
[1]; high DEX 3 mg/kg BW i.p.
  airway inflammation (BAL cell count, inflammatory gene expression in the lung): reduced to some degree
[1]; low DEX 0.3 mg/kg BW i.p.
  airway inflammation (BAL cell count, inflammatory gene expression in the lung): did not show much effect on inflammation alleviation
[2]
  neutrophilic airway inflammation (BAL cell count): trend to worsen neutrophilic airway inflammation
